# Measured values taken from patent publication US12612395B2, “Rocaglate derivatives and uses thereof” (TRUSTEES OF BOSTON UNIVERSITY, priority 2023, dated 2026).
# The name of at least one read-out is uncertain. Some entries share one result that the patent states for a list of compounds.
# Tests used:
# GBM0308 CSCs = assay: Dose-response killing of GBM CSCs (PI/Hoechst, Celigo cytometer); format: cell-based; settings: for CSCs Max. observed efficacy (% dead cells): Table 2, 72 h, highest tested concentration 10 μM; for fold by which C2-hydroxamic ester outperformed its C2-methyl ester counterpart (anti-CSC potency): 5 vs 3, 7 vs 9; for fold improvement in anti-CSC potency of C4′-brominated congener over its C4′-methoxy congener: 7 vs 5, 9 vs 3
# Description: (§1) The inventors first evaluated a cohort of seven rocaglate translation inhibitors (1, 3-7, and 9, FIG. 1A and Table 1, compounds 2 and 8 were not tested due to unavailability). To assay for compounds that selectively affect GBM CSCs, the inventors employed the patient-derived tumor-initiating cell (TIC) cell line […] that forms neurospheres (consisting exclusively of tumor-initiating cells or CSCs) when cultured in neurobasal (NBE) medium. Upon exposure to serum and growth factor withdrawal, however, the cell line differentiates, acquires a flattened morphology, and forms a non-CSC population.^20 Thus, compounds can be tested in parallel to assess their effect on GBM CSCs vs. GBM non-CSCs as separate populations with a clean and robust response. This approach has been previously used to perform RNAi-based genetic screens to identify modulators of CSCs.^20 In this study, GBM0308 cells, cultured in stem cell conditions to form CSCs or in medium containing serum to induce differentiation into a non-CSC population, were treated in parallel with compounds at varying doses. Three days post-treatment, propidium iodide (PI) and Hoechst staining were performed and quantified using a Celigo image cytometer. Hoechst dye stained all […] nucleated cells, while PI exclusively stained dead cells. Cell viability and the percentage of cell death were then determined.
# (§2) Cell Culture: Glioblastoma stem cell lines GBM0308, BT145, and BT112 were cultured in neurobasal (NBE medium) containing N-2 and B-27 supplements, EGF, bFGF, L-glutamine, and Penicillin-Streptomycin), as described previously.^19 Adherent GBM cells were cultured in serum-containing DMEM media (Invitrogen) supplemented with 10% fetal bovine serum (Corning Cellgro™). Cells were incubated at 37° C. and 5% CO2 to allow neurosphere formation. For seeding and subculturing, the neurospheres were gently trypsinized with 0.025% trypsin to form a single-cell suspension.
# (§3) Dose-Response Testing in GBM Cells: Briefly, on day 1, cells were seeded in triplicate. For CSCs, 1500 cells/well were plated in a low attachment 96-well plate with NBE media and incubated for 3 days at 37° C. and 5% CO2 to allow the formation of neurospheres. For non-CSCs, 3000 cells/well were plated in a 96-well plate with DMEM media supplemented with 10% FBS. Similarly, the assay plates were also incubated for the same duration. Compound treatments started on day 4. Each compound was resuspended in DMSO and then diluted to different concentrations in media to a final concentration of DMSO less than 1%. The compounds were added at concentrations of 10, 3.3, 1.11, 0.37, 0.12, 0.041, 0.013, and 0.004 µM, respectively. DMSO-treated cells served as a control. After 72 h incubation with the compounds, fluorescent stains, propidium iodide, and Hoechst 33342 (Life Technologies, Carlsbad, CA), were used to stain the GBM cells to determine cell viability. A staining solution in 1×PBS was prepared by mixing PI and Hoechst 33342 to working concentrations of 2.5 μM and 20 μM, respectively. 20 μL of this staining solution was added per well, and plates were incubated at 37° C. and 5% CO2 for 60 min. After incubation, plates were read by Celigo imaging cytometer using an inbuilt Celigo application; Cell Viability (Dead+Total). For the viability measurement, the total number of neurospheres/cells and dead neurospheres/cells in each well were counted by the cytometer. The percentage of PI+ cells was normalized to DMSO and plotted against the drug concentration to calculate the EC50 with a four-parameter, variable-slope dose-response curve with an upper constraint of <100% dead cells and a lower constraint of =0% dead cells (GraphPad Prism v.10.0.0). For all dose response experiments, the experimental maximal efficacy (maximum observed % cell death) is reported. Relative EC50 values are reported for all compounds killing >50% of cells.
# GBM0308 non-CSCs = assay: Dose-response killing of GBM non-CSCs (PI/Hoechst, Celigo cytometer); format: cell-based; settings: Table 2, 72 h, highest tested concentration 10 μM
# Description: as §1, §2, §3
structure (smiles),measurement,setting,value
"C#CCNS(=O)(=O)NC(=O)[C@H]1[C@@H](O)[C@@]2(O)c3c(OC)cc(OC)cc3O[C@@]2(c2ccc(OC)cc2)[C@@H]1c1ccccc1 (racemic) [rac-17, (1R,2R,3S,3aR,8bS)-1,8b-dihydroxy-6,8-dimethoxy-3a-(4-methoxyphenyl)-3-phenyl-N—(N-(prop-2-yn-1-yl)sulfamoyl)-2,3,3a,8b-tetrahydro-1H-cyclopenta[b]benzofuran-2-carboxamide]",CSCs Max. observed efficacy (% dead cells),GBM0308 CSCs; GBM0308 CSCs,54%
same,CSCs Max. observed efficacy (% dead cells),"GBM0308 CSCs; GBM0308 CSCs, listed as 17",< 75%
same,Non-CSCs Max. observed efficacy (% dead cells),GBM0308 non-CSCs,24%
same,Non-CSCs Max. observed efficacy (% dead cells),GBM0308 non-CSCs; listed as 17,< 75%
COc1cc(OC)c2c(c1)O[C@@]1(c3ccc(Br)cc3)[C@H](c3ccccc3)[C@@H](C(=O)O)[C@@H](O)[C@@]21O [(−)-11],EC50,"GBM0308 CSCs; GBM0308 CSCs, read-out: CSC EC50",< 125 nM
"CONC(=O)[C@H]1[C@@H](O)[C@@]2(O)c3c(OC)cc(OC)cc3O[C@@]2(c2ccc(Br)cc2)[C@@H]1c1ccccc1 [(−)-7, SDS-1-021]",fold by which C2-hydroxamic ester outperformed its C2-methyl ester counterpart (anti-CSC potency),GBM0308 CSCs,> 20 fold
same,fold improvement in anti-CSC potency of C4′-brominated congener over its C4′-methoxy congener,GBM0308 CSCs,5-to-10 fold
"COc1ccc([C@@]23Oc4cc(OC)cc(OC)c4[C@]2(O)[C@H](O)[C@H](C(=O)NC#N)[C@H]3c2ccccc2)cc1 (racemic) [rac-14, (1R,2R,3S,3aR,8bS)—N-cyano-1,8b-dihydroxy-6,8-dimethoxy-3a-(4-methoxyphenyl)-3-phenyl-2,3,3a,8b-tetrahydro-1H-cyclopenta[b]benzofuran-2-carboxamide]",CSCs Max. observed efficacy (% dead cells),GBM0308 CSCs; GBM0308 CSCs,44%
same,CSCs Max. observed efficacy (% dead cells),"GBM0308 CSCs; GBM0308 CSCs, listed as 14",< 75%
same,Non-CSCs Max. observed efficacy (% dead cells),GBM0308 non-CSCs,36%
same,Non-CSCs Max. observed efficacy (% dead cells),GBM0308 non-CSCs; listed as 14,< 75%
"C#CCCS(=O)(=O)NC(=O)[C@H]1[C@@H](O)[C@@]2(O)c3c(OC)cc(OC)cc3O[C@@]2(c2ccc(OC)cc2)[C@@H]1c1ccccc1 (racemic) [rac-18, (1R,2R,3S,3aR,8bS)—N-(but-3-yn-1-ylsulfonyl)-1,8b-dihydroxy-6,8-dimethoxy-3a-(4-methoxyphenyl)-3-phenyl-2,3,3a,8b-tetrahydro-1H-cyclopenta[b]benzofuran-2-carboxamide]",CSCs Max. observed efficacy (% dead cells),GBM0308 CSCs; GBM0308 CSCs,40%
same,CSCs Max. observed efficacy (% dead cells),"GBM0308 CSCs; GBM0308 CSCs, listed as 18",< 75%
same,Non-CSCs Max. observed efficacy (% dead cells),GBM0308 non-CSCs,29%
same,Non-CSCs Max. observed efficacy (% dead cells),GBM0308 non-CSCs; listed as 18,< 75%
"COC(=O)[C@H]1[C@@H](O)[C@@]2(O)c3c(OC)cc(OC)cc3O[C@@]2(c2ccc(Br)cc2)[C@@H]1c1ccccc1 [(−)-9, reference compound]",fold improvement in anti-CSC potency of C4′-brominated congener over its C4′-methoxy congener,GBM0308 CSCs,5-to-10 fold
"CONC(=O)[C@H]1[C@@H](O)[C@@]2(O)c3c(OC)cc(OC)cc3O[C@@]2(c2ccc(OC)cc2)[C@@H]1c1ccccc1 [(−)-5, CR-1-31b, reference compound]",fold by which C2-hydroxamic ester outperformed its C2-methyl ester counterpart (anti-CSC potency),GBM0308 CSCs,> 20 fold
